The supplement of paper PMC12009310
Where a name gives a salt, the structure may show the parent alone. ± gives the standard deviation of the averaged measurements. The list shows a part of the results. Part of the spread comes from offsets between plates or batches.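 The cells are a mouse kidney inner medullary collecting duct line, silenced either for the ciliary gene Rpgrip1l or with a non-targeting control siRNA.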

Tests used:
mIMCD3 [1] = experiment: robust z score of cell number vs plate controls; higher = more cells (less cytotoxic); settings: 10 µM, 48 h
mIMCD3 [2] = experiment: robust z score of cilia incidence (% cells with single cilium) vs plate controls; higher = more ciliated cells; settings: 10 µM; 48 h; siRNA: siScr
mIMCD3 [3] = experiment: robust z score of cilia incidence (% cells with single cilium) vs plate controls; higher = more ciliated cells (rescue of cilia loss); settings: 10 µM; 48 h; siRNA: siRpgrip1l

SMILES | robust z score of cell number (mIMCD3 [1]; siRNA: siRpgrip1l) | robust z score of cell number (mIMCD3 [1]; siRNA: siScr) | robust z score of cilia incidence (mIMCD3 [2]) | robust z score of cilia incidence (mIMCD3 [3])
CC(C)(C=O)Cc1cc(C(C)(C)C)c(O)c(C(C)(C)C)c1 | 1.81 ± 4.8 | 8.7 ± 5.6 | -0.419 ± 3.2 | -134 ± 69
CNC(=O)c1cc2c(cn1)[nH]c1ccccc12 | -8.95 ± 0.61 | -2.51 ± 6.8 | 1.87 ± 0.096 | -5.05 ± 5.6
NC(=O)c1cccc(N)c1 [3-Aminobenzamide] | -0.671 ± 0.64 | -0.248 ± 3.1 | 1.17 ± 0.64 | -5.84 ± 0.93
CCC1(c2ccccc2)C(=O)NCNC1=O [Primidone] | -1.27 ± 1.1 | -3.53 ± 0.54 | 0.691 ± 0.77 | -3.54 ± 2.4
CCOC(=O)C1=C(C)NC(C)=C(C(=O)OC)C1c1cccc([N+](=O)[O-])c1 (stereo not drawn) [Nitrendipine] | -23 ± 14 | -37.2 ± 43 | 0.81 ± 2.1 | -9.85 ± 8.2
O=S1(=O)c2cccc3cccc(c23)N1CCCN1CCN(c2ccc(F)cc2)CC1 [Fananserin] | -32.7 ± 10 | -144 ± 110 | -63.4 ± 13 | -53.3 ± 0.91
CC(C)Oc1ccc2c(=O)c3cc(C(=O)O)ccc3oc2c1 | -11.7 ± 10 | -20.5 ± 14 | 0.835 ± 2 | -6.09 ± 8.6
CN1CC2c3ccccc3Oc3ccc(Cl)cc3C2C1 (stereo not drawn) [Asenapine maleate] | -7.73 ± 1.9 | -18.7 ± 0.63 | -13.3 ± 0.57 | -16.1 ± 7.8
FC(F)(F)c1ccc(/C=C/c2nc(COc3ccc(CCCCn4ccnn4)cc3)co2)cc1 | -34 ± 26 | -3.2 ± 6.8 | -0.483 ± 1 | -15.8 ± 9.1
COc1cc(CNC(=O)CCCC/C=C/C(C)C)ccc1O [(E)-Capsaicin] | -47.5 ± 42 | -39.9 ± 0.47 | -43.2 ± 12 | -28.6 ± 4.4
CN(C)CCCSc1ccccc1NC(=O)/C=C/c1ccccc1 [Cinanserin hydrochloride] | -36.4 ± 28 | -34.5 ± 19 | -15 ± 4 | -25.7 ± 15
O=c1cc(N2CCOCC2)oc2c1ccc1ccccc12 | -19.4 ± 11 | -19.8 ± 23 | 1.09 ± 0.99 | -5.26 ± 9.4
N[C@H](C(=O)O)c1ccc(C(=O)O)c(O)c1 [(S)-4-Carboxy-3-hydroxyphenylglycine] | 6.84 ± 14 | 2.67 ± 2.3 | 2.13 ± 1.3 | -7.23 ± 8.1
NCCc1c[nH]cn1 [Histamine dihydrochloride] | -23.7 ± 17 | -28.61 ± 0.1 | -20.2 ± 3.4 | -16.5 ± 5.9
Nc1nccc(-c2ccc3noc(-c4ccc(Cl)cc4)c3c2)n1 [PIM 1 Inhibitor 2] | -24.4 ± 25 | -7.77 ± 8.3 | -1.36 ± 0.04 | -7.12 ± 0.93
O=[N+]([O-])c1cccc2c(Br)[nH]nc12 [3-Bromo-7-nitroindazole] | -2.52 ± 1.4 | -1.37 ± 1.8 | 3.5 ± 0.64 | -4.22 ± 1.4
CN1CCC(=C2c3ccccc3C=Cc3ccccc32)CC1 [Cyproheptadine hydrochloride] | 7.21 ± 10 | 0.38 ± 9.1 | -10 ± 5.1 | -15.1 ± 5
[O-][S+](c1ccccc1)c1ccc2nnnn2n1 (stereo not drawn) | -43.8 ± 40 | -44.1 ± 29 | -76.7 ± 60 | -57.8 ± 46
CC(C)[N+]1(C)[C@@H]2CC[C@H]1C[C@@H](OC(=O)C(CO)c1ccccc1)C2 (stereo partly drawn) [Ipratropium bromide] | 0.11 ± 1.2 | -2.13 ± 0.93 | -1.23 ± 4.3 | -7.39 ± 0.68
O=C(O)C1(C(=O)O)CCC1.[NH2-].[NH2-].[Pt+2] [Carboplatin] | -3.82 ± 4.7 | -25.2 ± 30 | 0.905 ± 1.6 | -9.39 ± 0.23
c1ccc2cc(C3=NCCN3)ncc2c1 [BU 226 hydrochloride] | -12.4 ± 7.7 | 0.77 ± 2.7 | 1.14 ± 1.3 | -14.7 ± 0.61
O=C(NCCCN1CCCCCC1)C(c1ccccc1)C1CCCCC1 (stereo not drawn) | -17.5 ± 16 | -10.7 ± 9.8 | 1.65 ± 0.22 | -11.3 ± 3.1
COc1cc2ncnc(Nc3ccc(F)c(Cl)c3)c2cc1OCCCN1CCOCC1 [Iressa] | -31.5 ± 30 | -14.4 ± 13 | -24.8 ± 24 | -24.5 ± 9.2
C/C=C1\C(=O)C[C@H]2[C@@H]3CCC4=CC(=O)CC[C@]4(C)[C@H]3CC[C@]12C [Guggulsterone] | -12.2 ± 4.8 | -22 ± 18 | -5.94 ± 4.9 | -32 ± 18
CC(=O)NCCc1c(Cc2ccccc2)[nH]c2ccccc12 [Luzindole] | -2.95 ± 0.25 | -4.35 ± 8.4 | -0.704 ± 3.8 | -8.44 ± 2.9
CCOC(=O)N1CCC(=C2c3ccc(Cl)cc3CCc3cccnc32)CC1 [Loratidine] |  |  | -29.7 ± 24 | -44.9 ± 34
c1ccc(N2CCN(CCCOc3ccc4c(c3)OCO4)CC2)cc1 [BP 554 maleate] | -13 ± 6.6 | -8.05 ± 9.2 | 0.387 ± 0.5 | -7.35 ± 2.5
O=C1N(c2ccccc2)c2ccccc2C1(Cc1ccncc1)Cc1ccncc1 [Linopirdine dihydrochloride] | -6.12 ± 9.5 | -5.17 ± 2.9 | 0.568 ± 2 | -10.9 ± 5.2
NCCCCCc1c[nH]cn1 [Impentamine dihydrobromide] | -0.0316 ± 1.7 | 0.922 ± 5.5 | -3.34 ± 0.73 | -23.9 ± 18
COc1cc(SC)ccc1C(=O)N1CCC(Cc2ccccc2)CC1 | -21.5 ± 5.5 | -107 ± 85 | -18.6 ± 2.3 | -31.7 ± 7.3

Of the compounds above, these contain a nitro group on carbon:
SMILES | robust z score of cell number (mIMCD3 [1]; siRNA: siRpgrip1l) | robust z score of cell number (mIMCD3 [1]; siRNA: siScr) | robust z score of cilia incidence (mIMCD3 [2]) | robust z score of cilia incidence (mIMCD3 [3])
CCOC(=O)C1=C(C)NC(C)=C(C(=O)OC)C1c1cccc([N+](=O)[O-])c1 (stereo not drawn) [Nitrendipine] | -23 ± 14 | -37.2 ± 43 | 0.81 ± 2.1 | -9.85 ± 8.2
O=[N+]([O-])c1cccc2c(Br)[nH]nc12 [3-Bromo-7-nitroindazole] | -2.52 ± 1.4 | -1.37 ± 1.8 | 3.5 ± 0.64 | -4.22 ± 1.4
